PubChem BioAssay AID1259405 – NCATS – 2018
Test: 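Mouse-designed siRNAs used to find CHO productivity engineering targets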 (primary screen). System: Chinese hamster CHO-K1 ovary cells with stable secreted eGFP expression. Knock-down reagent: single siRNA against mouse genes, 0.8 pmol siRNA per well (2 µl of 400 nM stock). Duration: 3 days. Measurement: 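Percent of the per-plate non-targeting control median for intracellular GFP per well by laser scanning cytometry and for cell viability by ATP luminescence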. Direction: GFP, % of control: higher = more GFP per well, higher productivity; viability (ATP), % of control: higher = more viable cells (more ATP). Hit rule: 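a knock-down is called active if GFP reaches 120% or more of non-targeting control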.
In all, the deposit lists about 50,000 reagents; this is a part drawn at random. Over the whole deposit, about 4,000 (8%) got an active call. 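Mouse siRNA library applied to hamster cells; one well for each siRNA.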

| GFP, % of control | viability (ATP), % of control | outcome | gene symbol | PubChem SID |
| --- | --- | --- | --- | --- |
| 141 | 89 | active | Sftpa1 (GeneID 20387) | SID363582338 |
| 81.2 | 81.4 | inactive | Sftpa1 (GeneID 20387) | SID363584098 |
| 118 | 78.3 | inactive | Phxr5 (GeneID 18690) | SID363554455 |
| 41.9 | 48.4 | inactive | Phxr5 (GeneID 18690) | SID363567902 |
| 77.9 | 87.5 | inactive | Phxr5 (GeneID 18690) | SID363585961 |
| 113 | 124 | inactive | Prpf19 (GeneID 28000) | SID363569059 |
| 83.9 | 91.9 | inactive | Prpf19 (GeneID 28000) | SID363583491 |
| 81 | 56.9 | inactive | Rnf227 (GeneID 80515) | SID363542878 |
| 66.8 | 40.5 | inactive | Rnf227 (GeneID 80515) | SID363546395 |
| 66.5 | 95.3 | inactive | Rnf227 (GeneID 80515) | SID363548151 |
| 51.6 | 47.1 | inactive | Brd10 (GeneID 240613) | SID363542834 |
| 102 | 43.6 | inactive | Brd10 (GeneID 240613) | SID363546351 |
| 80.7 | 79.5 | inactive | Brd10 (GeneID 240613) | SID363548107 |
| 71.9 | 89.3 | inactive | Aldh9a1 (GeneID 56752) | SID363575183 |
| 61.8 | 65.7 | inactive | Aldh9a1 (GeneID 56752) | SID363580815 |
| 59.2 | 86.7 | inactive | Aldh9a1 (GeneID 56752) | SID363582927 |
| 91.5 | 97.6 | inactive | Usf3 (GeneID 207806) | SID363545784 |
| 64.6 | 65.1 | inactive | Usf3 (GeneID 207806) | SID363549297 |
| 70.8 | 56.3 | inactive | Usf3 (GeneID 207806) | SID363563103 |
| 71.5 | 61.9 | inactive | Psmd10 (GeneID 53380) | SID363554027 |
| 64.8 | 91.8 | inactive | Psmd10 (GeneID 53380) | SID363561984 |
| 71.9 | 76 | inactive | Psmd10 (GeneID 53380) | SID363565722 |
| 51.7 | 34 | inactive | Vamp5 (GeneID 53620) | SID363544154 |
| 91.7 | 84.3 | inactive | Vamp5 (GeneID 53620) | SID363550482 |
| 53.2 | 48.5 | inactive | Vamp5 (GeneID 53620) | SID363553770 |
| 106 | 75.2 | inactive | Vamp5 (GeneID 53620) | SID363557031 |
| 52.5 | 68.8 | inactive | Vamp5 (GeneID 53620) | SID363561727 |
| 45.7 | 76.2 | inactive | Vamp5 (GeneID 53620) | SID363565465 |
| 65.6 | 57.3 | inactive | Zfp821 (GeneID 75871) | SID363555251 |
| 85.9 | 45.5 | inactive | Zfp821 (GeneID 75871) | SID363563912 |
| 89.8 | 91.3 | inactive | Zfp821 (GeneID 75871) | SID363587458 |
| 50.8 | 74 | inactive | Zcchc12 (GeneID 72693) | SID363556871 |
| 46.1 | 72.5 | inactive | Zcchc12 (GeneID 72693) | SID363563775 |
| 73.8 | 114 | inactive | Zcchc12 (GeneID 72693) | SID363587321 |

Laid out differently: results already given
GFP, % of control	viability (ATP), % of control	outcome	gene symbol	PubChem SID
66.5	95.3	inactive	Rnf227 (GeneID 80515)	SID363548151
51.6	47.1	inactive	Brd10 (GeneID 240613)	SID363542834
